From patent US20130266516
For some assays here: Where cells or extracts were used, other partners may take part. For some assays here: The exact form of at least one protein or probe is not confirmed.

Sequences of proteins named here, by UniProt entry; tags and fusion partners are left off. Residues count along the entry.
UniProt P10586, 30-1907: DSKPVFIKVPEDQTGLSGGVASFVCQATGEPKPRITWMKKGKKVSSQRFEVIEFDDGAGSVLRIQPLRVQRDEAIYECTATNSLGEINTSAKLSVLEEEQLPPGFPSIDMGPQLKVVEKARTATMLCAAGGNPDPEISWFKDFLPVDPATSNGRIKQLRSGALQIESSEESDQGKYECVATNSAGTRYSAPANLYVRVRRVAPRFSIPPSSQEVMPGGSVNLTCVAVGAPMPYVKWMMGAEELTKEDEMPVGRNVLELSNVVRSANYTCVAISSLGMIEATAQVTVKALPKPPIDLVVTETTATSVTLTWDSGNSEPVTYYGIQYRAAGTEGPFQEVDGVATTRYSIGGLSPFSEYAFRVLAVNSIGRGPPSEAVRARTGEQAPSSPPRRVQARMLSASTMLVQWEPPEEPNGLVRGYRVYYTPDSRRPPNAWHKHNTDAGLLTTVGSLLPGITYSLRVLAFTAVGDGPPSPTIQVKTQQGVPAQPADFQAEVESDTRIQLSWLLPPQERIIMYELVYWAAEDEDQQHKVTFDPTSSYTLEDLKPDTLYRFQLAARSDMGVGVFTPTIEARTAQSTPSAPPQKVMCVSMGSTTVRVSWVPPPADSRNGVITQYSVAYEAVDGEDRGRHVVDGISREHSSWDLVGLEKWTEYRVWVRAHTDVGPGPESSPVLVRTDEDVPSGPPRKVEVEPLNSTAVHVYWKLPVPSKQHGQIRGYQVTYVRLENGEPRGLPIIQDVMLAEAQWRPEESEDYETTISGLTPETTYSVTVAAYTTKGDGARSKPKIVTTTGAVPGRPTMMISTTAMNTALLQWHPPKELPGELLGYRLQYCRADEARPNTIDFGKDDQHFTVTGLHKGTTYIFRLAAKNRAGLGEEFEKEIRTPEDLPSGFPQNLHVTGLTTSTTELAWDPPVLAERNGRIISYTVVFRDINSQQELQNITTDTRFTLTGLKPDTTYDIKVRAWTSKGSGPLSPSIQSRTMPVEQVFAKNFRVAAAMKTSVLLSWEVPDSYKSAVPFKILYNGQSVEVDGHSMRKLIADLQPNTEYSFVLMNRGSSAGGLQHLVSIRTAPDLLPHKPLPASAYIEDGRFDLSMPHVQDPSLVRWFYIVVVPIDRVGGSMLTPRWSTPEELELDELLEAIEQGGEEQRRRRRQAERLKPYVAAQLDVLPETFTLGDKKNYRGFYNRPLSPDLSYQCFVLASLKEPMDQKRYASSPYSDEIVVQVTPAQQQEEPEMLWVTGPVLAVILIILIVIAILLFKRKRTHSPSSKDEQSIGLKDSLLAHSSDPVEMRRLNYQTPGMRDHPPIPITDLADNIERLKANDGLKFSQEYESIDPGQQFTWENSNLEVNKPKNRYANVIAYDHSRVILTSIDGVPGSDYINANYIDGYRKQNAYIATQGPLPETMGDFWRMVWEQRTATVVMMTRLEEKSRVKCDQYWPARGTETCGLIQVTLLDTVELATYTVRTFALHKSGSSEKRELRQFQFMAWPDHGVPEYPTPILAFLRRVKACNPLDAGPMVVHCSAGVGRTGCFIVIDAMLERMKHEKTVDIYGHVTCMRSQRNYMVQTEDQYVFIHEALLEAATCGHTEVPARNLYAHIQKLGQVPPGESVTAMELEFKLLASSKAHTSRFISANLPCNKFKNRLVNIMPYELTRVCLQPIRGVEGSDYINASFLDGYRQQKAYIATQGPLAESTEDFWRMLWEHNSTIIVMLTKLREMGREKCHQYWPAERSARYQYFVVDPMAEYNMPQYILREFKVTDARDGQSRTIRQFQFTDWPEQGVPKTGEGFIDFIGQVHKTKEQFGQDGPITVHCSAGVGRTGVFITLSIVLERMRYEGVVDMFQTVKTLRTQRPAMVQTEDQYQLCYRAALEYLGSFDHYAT

Assays:
[1] = target: LAR protein (PTPRF, receptor-type protein tyrosine phosphatase F), endogenous on human cell lines (Homo sapiens) (UniProt P10586); assay: pull-down; conditions: 2'-F on all pyrimidines, 2'-OH purines; biotinylated aptamer on MCF-7 cells, streptavidin beads, BSA competitor, LAR identified by mass spectrometry; protein on the cell surface; label: radiolabel, biotin or Alexa Fluor 647/680
[2] = target: LAR protein (PTPRF), longest isoform, overexpressed in transfected HEK293 (Homo sapiens) (UniProt P10586); assay: binding assay; conditions: 2'-F on all pyrimidines, 2'-OH purines; radiolabeled aptamer on LAR-transfected HEK293, 15 min; 2x at 5 nM, 5x at 50 nM; protein on the cell surface; protein details: expression plasmid for the longest isoform; label: radiolabel, biotin or Alexa Fluor 647/680
[3] = target: LAR protein (PTPRF, receptor-type protein tyrosine phosphatase F), endogenous on human cell lines (Homo sapiens) (UniProt P10586); assay: binding assay; conditions: 2'-F on all pyrimidines, 2'-OH purines; UV crosslinking on HEK293-KDR cells, 25 nM, 37 C 15 min; band of LAR size; protein on the cell surface; label: radiolabel, biotin or Alexa Fluor 647/680
[4] = target: LAR protein (PTPRF, receptor-type protein tyrosine phosphatase F), endogenous on human cell lines (Homo sapiens) (UniProt P10586); assay: flow cytometry; conditions: 2'-F on all pyrimidines, 2'-OH purines; MCF-7 cells, 5 nM, 30 min; protein on the cell surface; label: radiolabel, biotin or Alexa Fluor 647/680
[5] = target: LAR protein (PTPRF, receptor-type protein tyrosine phosphatase F), endogenous on human cell lines (Homo sapiens) (UniProt P10586); assay: activity in cells; conditions: 2'-F on all pyrimidines, 2'-OH purines; HUVEC endothelial tube formation on Matrigel, 16 h; inhibition, target LAR presumed; protein on the cell surface; dose not given here

What does the source list for “GGGAGAUGCUCUGUCAGACUACGACUGUCCCAGUAUGACGCGACUGCUUAGGUGGGAUGUUUCCCAUGCCUCGACUGGCUGGCAGGUUGAUGACAAG [V8 aptamer]”?
binding result [1]: binds; binding result [2]: binds; binding result [3]: binds; binding result [4]: binds; functional effect of the aptamer (tubes per node (control 2)) [5]: 0.72
